For twelve molecules, cell viability results are on record in the supplement of paper PMC9433722.

Test [1] relates to Saos-2. Nature of the test: cell viability (CCK-8) relative to DMSO control (% of control); higher = less cytotoxic. The conditions noted are these: 10 µM; 48 h.
The subject of test [2] is U2OS. The test is described as above. The conditions noted are these: 10 µM; 48 h.

Molecules are shown by their SMILES. Structures can show the parent of a compound that is named as a salt. This is one part of the list. Repeats are few or missing, and single values can be far off.

On to `Cc1ccc(N(CC2=NCCN2)c2cccc(O)c2)cc1` [Phentolamine Hydrochloride], for which the cell viability was 62.1 in test [1] and 112 in test [2].
For `Cc1nc(-c2ccc(OCC(C)C)c(C#N)c2)sc1C(=O)O` [Febuxostat] the same measures were 99.9 and 91.6.
As to `CN(C)c1ccc(O)c2c1C[C@H]1C[C@H]3[C@H](N(C)C)C(O)=C(C(N)=O)C(=O)[C@@]3(O)C(O)=C1C2=O` [Minocycline], the cell viability in test [1] was found to be 70.7; in test [2], 97.9.
As for `C[C@@H]1C/C=C/C=C/C=C/C=C/[C@H](O[C@@H]2O[C@H](C)[C@@H](O)[C@H](N)[C@@H]2O)C[C@@H]2O[C@](O)(C[C@@H](O)C[C@H]3O[C@@H]3/C=C/C(=O)O1)C[C@H](O)[C@H]2C(=O)O` [Natamycin], the results for the cell viability in test [1] and in test [2] were 104 and 101, respectively.
For `NC(=O)Cc1cccc(C(=O)c2ccccc2)c1N` [Nepafenac], the cell viability in test [1] is 110; in test [2], 100.
On the same counts, the results for `CO[C@@]12[C@H](COC(N)=O)C3=C(C(=O)C(C)=C(N)C3=O)N1C[C@@H]1N[C@@H]12` [Mitomycin C] are 71.4 and 114.
For `CCC(=O)NCC[C@@H]1CCc2ccc3c(c21)CCO3` [Ramelteon] the same measures were 108 and 101.
For `CN(C)CC/C=C1/c2ccccc2COc2ccc(CC(=O)O)cc21` [Olopatadine] the same measures were 66.2 and 97.7.
Take `CC#C[C@]1(O)CC[C@H]2[C@@H]3CCC4=CC(=O)CCC4=C3[C@@H](c3ccc(N(C)C)cc3)C[C@@]21C` [Mifepristone]: the cell viability in test [1] amounted to 64.8; in test [2] it was 102.
On the same counts, the results for `Clc1ccc(CCC(Cn2ccnc2)Sc2c(Cl)cccc2Cl)cc1` (centres undefined) [Butoconazole Nitrate] are 71.7 and 132.
Regarding `CN(C)CCC(c1ccc(Cl)cc1)c1ccccn1` (centres undefined) [Chlorpheniramine Maleate], the cell viability in test [1] turned out to be 69.2; in test [2], 97.
For the molecule `CC(C)C[C@H](NC(=O)[C@@H](COC(C)(C)C)NC(=O)[C@H](Cc1ccc(O)cc1)NC(=O)[C@H](CO)NC(=O)[C@H](Cc1c[nH]c2ccccc12)NC(=O)[C@H](Cc1cnc[nH]1)NC(=O)[C@@H]1CCC(=O)N1)C(=O)N[C@@H](CCCNC(=N)N)C(=O)N1CCC[C@H]1C(=O)NNC(N)=O` [Goserelin Acetate], the cell viability in test [1] was determined as 57.8; in test [2] it was 97.3.
